According to patent US20180127502A1:
No constants are given. Whether binding was seen depends on the method and setting. Some entries that bind do so weakly or less than the wild type. Sequences can lack the tags named with a protein.

By UniProt entry, the sequences of proteins in these tests, tags left out. Residues count along the entry.
UniProt Q15116, residues 25-167: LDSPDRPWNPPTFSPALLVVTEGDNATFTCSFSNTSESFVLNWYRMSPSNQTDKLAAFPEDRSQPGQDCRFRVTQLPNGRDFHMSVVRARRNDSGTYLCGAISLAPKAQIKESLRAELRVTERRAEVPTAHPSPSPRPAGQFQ

What was measured:
[1] = biological target: human PD-1 monomer (human) (UniProt Q15116); assay: ELISA, coated human PD-1 monomer, HRP anti-mouse IgG1 Fc
[2] = biological target: human PD-1 monomer (human) (UniProt Q15116); assay: ELISA on PD-1 monomer (FIG. 1)

binding [1]: binds | binding [2]: binds
B1: anti-PD-1 scFv-Fc clone 18 (scFv linked to murine Fc) (Fc fusion, not shown: a dimerising Fc or GST)
chain: QSVLTQPPSVSGAPGQRVTISCTGSSSNIGAGYAVNWYQLLPGTAPKLLISTNNNRPSGVPDRFSGSQFGASASLAITGLQAEDEADYYCQSYDSSLSGVIFGGGTKLTVLGGGGGSGGGGSGGGGSEVQLVQSGAEVKKPGASVKVSCKVSGYTLTELSMHWVRQAPGKGLEWMGGFDPEDGETIYAQKFQGRVTMTEDTSTDTAYMELSSLRSEDTAVYYCARAYYGFDQWGQGTLVTVSS
